Data taken from PubChem BioAssay AID2685 (National Center for Advancing Translational Sciences (NCATS), 2010).
Among all 320,000 compounds or so, about 2,100 (0.66%) were called active. Inconclusive results, whose numbers are uncertain, are shown with a selection of clear calls. The call rests on the fitted dose curve; in most records, active means well fitted inhibition curve with a large enough effect in the signal ratio, with a control signal flat (not every such curve was filed as active); inconclusive means small, poorly fitted or top-dose-only effect, or effect the other way, or a change in a side signal; inactive means flat fitted curve, though single readings scatter; the % refers to the signal ratio. A potency beside an inconclusive call is a rough fit, not a confirmed value.
On the % scale 0 is the no-effect control and ±100 the full control effect; potency means the concentration at half of the fitted maximal effect.

Assay: qHTS Assay for Lipid Storage Modulators in Drosophila S3 Cells
Conditions: BODIPY lipid droplet fluorescence, 18-24 h, cells fed with added oleic acid; lipid storage change, negative = inhibition: at 46.1 µM (top of the series) unless noted
Excerpt: NIH Molecular Libraries Probe Production Centers Network [MLPCN] NIH Chemical Genomics Center [NCGC] MLPCN Grant: 1 R03 MH085686-01 Assay Submitter (PI): Beller, Mathias; Max-Planck-Institut fur Biophysikalische Chemie NCGC Assay Overview: Storing lipids as a reservoir for energy or the anabolism of elementary metabolites is a common feature of probably all cells and is conserved from bacteria to humans. The universal cellular lipid storage organelle is the so-called lipid storage droplet (LD). Although ubiquitous, LDs share a simple structure composed of a hydrophobic core that harbors the storage lipids, which is shielded by a droplet-specific phospholipid monolayer to which proteins are attached. The current model of LD biogenesis involves an incorporation of the lipid core into the membrane leaflets of the endoplasmic reticulum (ER) followed by a subsequent budding-like maturation of a LD, which ultimately pinches off. Once released, LD volume can increase by localized lipogenesis or fusion of existing droplet. Storage lipids are re-mobilized enzymatically by lipase activity. Lipase regulation in the adipocyte is heavily studied and involves multiple components including catecholamine signaling, the LD-associated proteins Perilipin and comparative gene identification (CGI-58) and at least two lipases named hormone sensitive lipase (HSL) and adipocyte triglyceride lipase (ATGL). LD regulation outside of the adipocyte is poorly understood and only few components are known. However, there is an urgent need to learn more about ectopic fat depots as mislocalized storage of lipids, for example in the liver or muscle, is an eminent health problem associated with insulin resistance or the metabolic syndrome. We developed a laser-scanning cytometer assay to enable 1,536-well screening and combined the results of the small molecules screen with an RNAi database based on lipid storage.
Triacsin C (Sigma-Aldrich T-4540), an inhibitor of long-chain fatty acyl CoA synthetase that blocks synthesis of triglycerides, was used as a positive control for lipid under-storage. A total of 23 nL of compound solution of different concentrations were transferred to the assay plates using a Kalypsys pin tool equipped with a 1,536-pin array containing 10-nL slotted pins (FP1S10, 0.457-mm diameter, 50.8 mm long; V&P Scientific). One microliter of oleic acid (400 uM) was added, and the plate was lidded with stainless steel rubber gasket lined lids containing pinholes. […] Fluorescence was detected by excitation of the fluorophores with a 488-nm laser on an Acumen Explorer (TTP Lab Tech). The total intensity in channel 2 (500-530 nm) reflected lipid droplet accumulation. Cells were detected using channel 3 (575-640 nm) with 5-um width and 100-um depth filters. The ratio of the number of objects in PMT channel 2 over the number of objects in PMT channel 3 was also calculated. Percent activity was computed relative to an internal control (100% inhibited lipid droplet deposition due to the presence of 20 uM Triacsin C), which was added to 32 wells/plate.
In the case of O=C(c1cccs1)N(Cc1ccco1)c1nc(-c2ccc(F)cc2)cs1, the lipid storage change, negative = inhibition is reported as inconclusive: -16.8%. With CN(C(=O)c1ccc(NC(=O)Cc2cccc(NC(=O)C3CCCN(C(=O)C4CCCC4)C3)c2)cc1)C1CCCC1 (centres undefined) the lipid storage change, negative = inhibition was inconclusive: 10.9%. With O=C(Cc1ccccc1F)NC1CCCc2ccccc21 (centres undefined) the lipid storage change, negative = inhibition was inconclusive: 13.1%. With NC(=O)C1CCN(c2oc(-c3ccc(F)cc3)nc2S(=O)(=O)c2ccccc2)CC1 the Potency was inconclusive: 11.6 µM [activator, partial curve, poor fit]. With COC(=O)c1cn(-c2ccccc2)nc1-c1ccncc1 the Potency was inconclusive: 10.3 µM [activator, partial curve]. With Oc1c(/C=C/C=C/C=Nc2ccccc2)sc(=S)n1Cc1ccccc1 the lipid storage change, negative = inhibition was inconclusive: 8.14%. For COc1ccc(NC(=O)CSCc2ccc(C)cc2)cc1, the lipid storage change, negative = inhibition was inconclusive: 52.3%. For CCn1c(CCC(N)=O)nnc1SCC(=O)c1cc(C)n(C2CC2)c1C, the lipid storage change, negative = inhibition was inconclusive: 11.6%. In the case of COc1ccc(CCNC(=O)c2ccc(CN3CCC(Cc4ccccc4)CC3)cc2)cc1, the lipid storage change, negative = inhibition is reported as inconclusive: -35.7%. With Cn1cnc2c1c(=O)n(Cc1ccc(F)cc1Cl)c(=O)n2C the lipid storage change, negative = inhibition was inconclusive: 18.4%. With CCNC(=O)CNC(=O)c1nn(Cc2ccccc2)c(=O)c2ccccc12 the lipid storage change, negative = inhibition was inconclusive: -24.2%. For O=C(NCc1ccco1)c1ccc(NS(=O)(=O)c2cccc(F)c2)cc1, the lipid storage change, negative = inhibition was inconclusive: -15%. For O=C(Nc1ccccc1)Nc1ccccc1C(=O)NCC1CC1, the lipid storage change, negative = inhibition was inconclusive: 12.5%. With CCCC1=C(C(=O)OCC)C(c2ccccc2OC)NC(=O)N1 (centres undefined) the lipid storage change, negative = inhibition was inconclusive: 20.5%. For COc1ccc(C2NC(=O)NC(O)(C(F)(F)F)C2C(=O)c2ccc(C)cc2)cc1 (centres undefined), the Potency was inconclusive: 3.66 µM [falling, full curve]. With COCCNC(=O)COc1cccc(Oc2ccccc2)c1 the lipid storage change, negative = inhibition was inconclusive: 0.507%. With CCOc1ccc(C(C)NC(=O)C2CCCC2)cc1 (centres undefined) the Potency was inconclusive: 0.461 µM [falling, single point]. With O=C1CCCN1CC(=O)N1CCCC(N2CCN(c3cccc(Cl)c3)CC2)C1 (centres undefined) the lipid storage change, negative = inhibition was inconclusive: 1.28%. For C=CCNC(=S)NNC(=O)COc1ccc(Cl)cc1Cl, the lipid storage change, negative = inhibition was inconclusive: -18.7%. With COc1ccc(C2=Nn3c(nnc3-c3ccncc3)SC2)cc1OC the Potency was inconclusive: 8.2 µM [activator, partial curve]. For O=C(NC(=S)NCCN1CCOCC1)c1ccc(Cl)cc1, the lipid storage change, negative = inhibition was inconclusive: -4.97%. In the case of CN1CCC(N(C)S(=O)(=O)c2ccc(NC(=O)COc3cccc(C(F)(F)F)c3)cc2)CC1, the lipid storage change, negative = inhibition is reported as inconclusive: -58.5% [at 0.0737 µM]. With CCOC(=O)c1c(C)n(C)c2cc(-c3ccc(C)cc3)c(O)cc12 the Potency was inconclusive: 14.6 µM [activator, partial curve]. With Cc1ccc(Nc2c3c(nc4ncnn24)CC(C)CC3)cc1 (centres undefined) the lipid storage change, negative = inhibition was inconclusive: -38.4%. In the case of COc1ccc(CCNC(=O)COc2ccc3c(C)cc(=O)oc3c2)cc1OC, the lipid storage change, negative = inhibition is reported as inconclusive: -79.8%. With CC/C(=N/N=C(\CC)c1ccccc1)c1ccccc1 the lipid storage change, negative = inhibition was inconclusive: 75.5%. With O=C(NCCCc1ccccc1)c1cccc([N+](=O)[O-])c1 the lipid storage change, negative = inhibition was inconclusive: 24.5%. For CCOc1ccc(N(CC(=O)NCc2ccccc2)C(=O)Cn2nnc(-c3ccc(C)o3)n2)cc1, the Potency was inconclusive: 6.51 µM [activator, single point]. In the case of O=C(NCc1ccc(Cl)cc1)c1ncn[nH]1, the lipid storage change, negative = inhibition is reported as inconclusive: -43.6% [at 0.369 µM]. With S=C(Nc1ccccc1)Nc1ccc(Br)cn1 the lipid storage change, negative = inhibition was inconclusive: 1.16%. For C=CCNC(=O)CCC(=O)NNc1nc2ccccc2c2nc(-c3ccccc3)nn12, the lipid storage change, negative = inhibition was inconclusive: -0.33%. With Cc1ccc(OCCSc2cc(C)nc(N)n2)cc1 the lipid storage change, negative = inhibition was inconclusive: 22%. With CCCN1CCN(C(=O)c2noc3c2COc2ccc(C)cc2-3)CC1 the “lipid storage change, negative = inhibition” value was inactive: -30.8%. In the case of COc1ccc(OC)c(NC(=O)CC2Oc3ccccc3NC2=O)c1 (centres undefined), the lipid storage change, negative = inhibition is reported as inconclusive: 8.83%. In the case of CC(=O)N1CCc2cc(C(=O)CN3CCCN(Cc4ccc(F)cc4)C3)ccc21, the lipid storage change, negative = inhibition is reported as inconclusive: 4.35%. For CC(NCCC(Cc1ccccc1)c1ccco1)c1ccccc1 (centres undefined), the lipid storage change, negative = inhibition was inconclusive: 9.64%. For CC(C)C[C@H](NC(=O)N1CC(=O)Nc2ccccc21)C(=O)N[C@H](Cc1ccccc1)C(=O)O, the lipid storage change, negative = inhibition was inconclusive: -3.05%. In the case of O=C(CSc1nnc2scc(-c3ccccc3)n12)N1CCN(Cc2ccccc2)CC1, the lipid storage change, negative = inhibition is reported as inconclusive: 111%. With O=C(CNC(=O)c1ccc(=O)[nH]c1)Nc1ccc(F)c(F)c1 the Potency was inconclusive: 29.1 µM [activator, partial curve, poor fit]. For Cc1[nH]c2ccc(F)cc2c1CCN(Cc1cccnc1)C(=S)Nc1ccc(F)cc1, the lipid storage change, negative = inhibition was inconclusive: 22%. In the case of N#CC1(NC(=O)CSc2nnc(-c3ccccc3F)o2)CCCCC1, the lipid storage change, negative = inhibition is reported as “inconclusive”. With CCOc1ccc(NC(=O)Nc2cccc(C(=O)O)c2)cc1 the “lipid storage change, negative = inhibition” value was inactive: 5.5%. In the case of CCOCCCNC(=O)CCCOc1ccccc1, the lipid storage change, negative = inhibition is reported as inconclusive: 13.6%. With N#Cc1ccccc1NC(=O)C(=O)NCCCN1CCCC1=O the lipid storage change, negative = inhibition was inconclusive: 3.72%. With O=C(NCc1ccccc1Cl)C1CCCO1 (centres undefined) the lipid storage change, negative = inhibition was inconclusive: 26.3%. With Cc1c(-c2ccncc2)oc2ccc(Br)cc2c1=O the lipid storage change, negative = inhibition was inconclusive: -11.3%. With COC(=O)C1CSC(C)(C)C(=O)N1 (centres undefined) the lipid storage change, negative = inhibition was inconclusive: -20% [at 9.22 µM]. For Cc1sc2nc(NCCO)[nH]c(=O)c2c1C, the lipid storage change, negative = inhibition was inconclusive: 1.85%. In the case of Cc1cc2ccccn2c1C(=O)c1ccc([N+](=O)[O-])o1, the lipid storage change, negative = inhibition is reported as inconclusive: -26.9%. With O/N=C/c1ccc2ccccc2n1 the Potency was inconclusive: 0.517 µM [activator, full curve, poor fit]. With CC(=NC(C)C)C1=C(O)C(C)OC1=O (centres undefined) the Potency was inconclusive: 0.0103 µM [falling, full curve]. For Cc1cc(Cl)c(S(=O)(=O)N2CCCCCC2)cc1OCC(N)=O, the Potency was inconclusive: 2.59 µM [activator, partial curve, poor fit]. For O=C(CCc1nnc2ccc(N3CCCC3)nn12)Nc1cc(F)ccc1F, the Potency was inconclusive: 6.51 µM [activator, single point]. In the case of COC(=O)c1ccc(-n2c(C)cc(C(=O)COC(=O)CNS(=O)(=O)c3ccc(C)cc3)c2C)cc1, the lipid storage change, negative = inhibition is reported as inconclusive: -11.9%. In the case of CCOC(=O)C(C)n1cnc2c(nnn2-c2ccccc2)c1=O (centres undefined), the lipid storage change, negative = inhibition is reported as inconclusive: -2.82%. In the case of C=CCn1c(SCC(=O)OCC)nc(C(F)(F)F)cc1=O, the lipid storage change, negative = inhibition is reported as inconclusive: -23.3%. In the case of O=C(O)Cc1csc(NC(=O)CSc2cccc(C(=O)O)n2)n1, the lipid storage change, negative = inhibition is reported as inconclusive: -13.9%. In the case of O=C(CN1CCN(S(=O)(=O)c2ccc(Br)cc2)CC1)N/N=C/c1ccncc1, the lipid storage change, negative = inhibition is reported as inconclusive: 10.6%. In the case of CC(C)n1cc(C(=O)NC2CC(C)(C)Cc3c2cnn3-c2ccccc2)cn1 (centres undefined), the lipid storage change, negative = inhibition is reported as inconclusive: -114%. For NS(=O)(=O)c1ccc(CNC(=O)/C=C/c2c(Cl)cccc2Cl)cc1, the lipid storage change, negative = inhibition was inconclusive: -22.5%. For CCOc1ccc(C(=O)COC(=O)CNC(=O)C2CCCCC2)cc1, the Potency was inconclusive: 6.51 µM [activator, single point]. For COc1ccc(Br)cc1S(=O)(=O)Nc1ccc(Cl)cn1, the Potency was inconclusive: 29.1 µM [falling, single point]. With COc1cccc(C(=O)N/N=C2\SCC(=O)N2Cc2ccc3c(c2)OCO3)c1 the Potency was inconclusive: 0.517 µM [rising, full curve]. With CCCCN(CCCC)C(=S)N/N=C/c1c(C)[nH]n(-c2ccccc2)c1=O the Potency was inconclusive: 16.4 µM [falling, single point]. For CC(C)Oc1ccc(CCNC(=O)C2CCC(=O)N(C3CCCCCC3)C2)cc1 (centres undefined), the Potency was inconclusive: 3.66 µM [activator, single point]. For O=S(=O)(NC1CCCC1)c1ccc(S(=O)(=O)N(Cc2cccs2)CC2CCCO2)cc1 (centres undefined), the lipid storage change, negative = inhibition was inconclusive: 49.9%. With Cc1nn(Cc2ccc(F)cc2)c(C)c1NC(=O)c1cnn2cccnc12 the lipid storage change, negative = inhibition was inconclusive: -23.3%. In the case of Cc1ccc(OCCNC(=O)c2ccc(C)o2)cc1, the Potency is reported as inconclusive: 4.61 µM [falling, partial curve]. With O=C(CSc1nccn1-c1ccc(Cl)cc1)NCc1ccc2c(c1)OCO2 the Potency was inconclusive: 1.64 µM [rising, full curve, poor fit]. In the case of O=C(O)c1ccccc1-c1ccccc1C(=O)NCCCO, the lipid storage change, negative = inhibition is reported as inconclusive: -17.6%. For COCCn1cc(-c2csc(N)n2)c2ccccc21, the Potency was inconclusive: 1.64 µM [falling, partial curve]. In the case of Cc1ccc(S(=O)(=O)N2CCCOC2CNC(=O)C(=O)NCc2cccs2)cc1 (centres undefined), the Potency is reported as inconclusive: 9.2 µM [activator, partial curve]. For Cc1ccc(NC(=O)CSc2nc(=O)n(CCCN3CCOCC3)c3c2CCCC3)cc1, the lipid storage change, negative = inhibition was inconclusive: -56%. With Cc1cc2c(c(=O)o1)C(Cc1ccccc1)C(C#N)=C(N)O2 (centres undefined) the lipid storage change, negative = inhibition was inconclusive: -95%. In the case of O=c1[nH]c2ccc(Cl)cc2c(-c2ccccc2)c1N1CCN(c2ccccn2)CC1, the lipid storage change, negative = inhibition is reported as inconclusive: 8.16%. In the case of Cn1c2ccccc2c(=O)c2cc(C#Cc3ccc(N)cc3)ccc21, the lipid storage change, negative = inhibition is reported as inconclusive: 7.64%. For COc1ccc(C(=O)NCC2COc3ccccc3O2)cc1S(=O)(=O)N1CCOCC1 (centres undefined), the Potency was inconclusive: 1.84 µM [activator, partial curve]. With Cc1c(C)c2ccc(OC(C)C(=O)N3CC[C@@]4(O)CCCC[C@H]4C3)c(C)c2oc1=O (some centres undefined) the Potency was active: 5.8 µM. In the case of CC(=O)Nc1ccccc1C(=O)C(=O)NCCc1ccccc1, the Potency is reported as inconclusive: 25.9 µM [falling, single point].
